Source: PubChem BioAssay AID652243 (Drosophila RNAi Screening Center, 2013)
In all, the deposit lists about 24,000 reagents; this is a random part of those that have a named target and a result. In the full data, 246 (1%) got an active call. 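Plates not normalised; calls are printed but the firefly/Renilla ratio behind them is not deposited; fold cut for lowering reported inconsistently.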 Raw values are not corrected between plates. The record does not give: the amount of reagent.

Aim: 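Fly regulators of androgen-dependent reporter output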 (primary screen)
System: Drosophila S2R+ cells
Knock-down reagent: long dsRNA against Drosophila genes
Time to read-out: 72 h (48 h, then 24 h hormone)
Challenge: synthetic androgen R1881 at 10 nM for 24 h
Detection: 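Firefly light from an androgen-responsive reporter and Renilla control light per well, raw and unnormalised, for each of two replicates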
Scale: firefly reporter light: higher = more light from androgen-responsive reporter; Renilla control light: higher = more constitutive control signal (cell number, transfection)
Call rule: 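Across duplicate plates, a knock-down whose log firefly/Renilla ratio shifted a set fold down or up from the GFP/LacZ control mean was a hit; the downward cut appears as both 1.5 and 3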
Meaning of the calls: active = hit: reporter lowered or raised; inactive = no hit

For Gbs-76A (GeneID 40102) [SID104190873] the deposit lists firefly reporter light, replicate 1 = 94975; firefly reporter light, replicate 2 = 23672; Renilla control light, replicate 1 = 4.23e5; Renilla control light, replicate 2 = 3.94e5; active.
With knock-down of Gbs-76A (GeneID 40102) [SID104214482] the results were inactive.
For Gbs-76A (GeneID 40102) [SID104214483] the deposit lists inactive.
CG31819 (GeneID 260658) [SID104181324] gave firefly reporter light, replicate 1 = 1.22e5; firefly reporter light, replicate 2 = 2.46e5; Renilla control light, replicate 1 = 4.41e5; Renilla control light, replicate 2 = 5.94e5; inactive.
CG31819 (GeneID 260658) [SID104206279] gave firefly reporter light, replicate 1 = 2.81e5; firefly reporter light, replicate 2 = 1.99e5; Renilla control light, replicate 1 = 6.32e5; Renilla control light, replicate 2 = 7.06e5; inactive.
CG10947 (GeneID 35309) [SID104181903] scored firefly reporter light, replicate 1 = 1.21e6; firefly reporter light, replicate 2 = 9.81e5; Renilla control light, replicate 1 = 1.55e6; Renilla control light, replicate 2 = 1.42e6; inactive.
CG10947 (GeneID 35309) [SID104205948] gave firefly reporter light, replicate 1 = 2.41e5; firefly reporter light, replicate 2 = 2.56e5; Renilla control light, replicate 1 = 6.82e5; Renilla control light, replicate 2 = 7.63e5; inactive.
CG32726 (GeneID 318175) [SID104197313] showed firefly reporter light, replicate 1 = 7.80e5; firefly reporter light, replicate 2 = 6.18e5; Renilla control light, replicate 1 = 1.04e6; Renilla control light, replicate 2 = 8.04e5; inactive.
Silencing of NELF-B (GeneID 31681) [SID104197526] resulted in: firefly reporter light, replicate 1 = 58030; firefly reporter light, replicate 2 = 66417; Renilla control light, replicate 1 = 4.18e5; Renilla control light, replicate 2 = 3.31e5; inactive.
With knock-down of NELF-B (GeneID 31681) [SID104204786], the screen gave firefly reporter light, replicate 1 = 3.01e5; firefly reporter light, replicate 2 = 3.63e5; Renilla control light, replicate 1 = 6.67e5; Renilla control light, replicate 2 = 7.09e5; inactive.
Knock-down of CG6435 (GeneID 36894) [SID104186779] gave: firefly reporter light, replicate 1 = 81099; firefly reporter light, replicate 2 = 78813; Renilla control light, replicate 1 = 1.41e6; Renilla control light, replicate 2 = 1.41e6; inactive.
PolrMT (GeneID 33285) [SID104180452] showed firefly reporter light, replicate 1 = 7.36e5; firefly reporter light, replicate 2 = 1.04e6; Renilla control light, replicate 1 = 1.92e6; Renilla control light, replicate 2 = 1.39e6; inactive.
Depletion of CAH5 (GeneID 50102) [SID104195164] came out at: firefly reporter light, replicate 1 = 1.65e5; firefly reporter light, replicate 2 = 1.12e5; Renilla control light, replicate 1 = 1.69e6; Renilla control light, replicate 2 = 2.32e6; inactive.
CG6927 (GeneID 31419) [SID104198199] gave firefly reporter light, replicate 1 = 93138; firefly reporter light, replicate 2 = 73635; Renilla control light, replicate 1 = 5.79e5; Renilla control light, replicate 2 = 5.81e5; inactive.
c11.1 (GeneID 53436) [SID104198541] gave firefly reporter light, replicate 1 = 1.73e5; firefly reporter light, replicate 2 = 2.20e5; Renilla control light, replicate 1 = 2.31e6; Renilla control light, replicate 2 = 2.04e6; inactive.
After knock-down of Dab (GeneID 39866) [SID104190932], the record shows firefly reporter light, replicate 1 = 3.78e5; firefly reporter light, replicate 2 = 4.22e5; Renilla control light, replicate 1 = 2.24e6; Renilla control light, replicate 2 = 2.42e6; inactive.
CG13197 (GeneID 36253) [SID104186114] showed firefly reporter light, replicate 1 = 4.15e5; firefly reporter light, replicate 2 = 3.75e5; Renilla control light, replicate 1 = 1.66e6; Renilla control light, replicate 2 = 2.39e6; inactive.
For CG13197 (GeneID 36253) [SID104216883] the deposit lists inactive.
With knock-down of CG7443 (GeneID 40992) [SID104196036], the screen gave firefly reporter light, replicate 1 = 69111; firefly reporter light, replicate 2 = 81361; Renilla control light, replicate 1 = 1.83e6; Renilla control light, replicate 2 = 1.71e6; inactive.
CG5191 (GeneID 42431) [SID104195525] showed firefly reporter light, replicate 1 = 1.39e5; firefly reporter light, replicate 2 = 1.09e5; Renilla control light, replicate 1 = 1.42e6; Renilla control light, replicate 2 = 1.44e6; inactive.
For CG5191 (GeneID 42431) [SID104195526], the values are firefly reporter light, replicate 1 = 1.69e5; firefly reporter light, replicate 2 = 2.10e5; Renilla control light, replicate 1 = 3.04e6; Renilla control light, replicate 2 = 3.03e6; inactive.
Against CG5191 (GeneID 42431) [SID104201272], the values are firefly reporter light, replicate 1 = 6.68e5; firefly reporter light, replicate 2 = 7.42e5; Renilla control light, replicate 1 = 1.44e6; Renilla control light, replicate 2 = 1.88e6; inactive.
CG5191 (GeneID 42431) [SID104206233] gave firefly reporter light, replicate 1 = 2.52e5; firefly reporter light, replicate 2 = 2.16e5; Renilla control light, replicate 1 = 2.25e5; Renilla control light, replicate 2 = 5.31e5; inactive.
